# Laboratory results: patent US5756537A (Parkash S. Gill, M.D., Inc., priority 1996, dated 1998)
# At least one read-out could not be matched to a standard name with certainty.
# Tested on: Kaposi's sarcoma
# Experiment: Paclitaxel peak levels, AUC and relation to effect and side effects in KS patients
# Conditions: read-out: estimated desired peak paclitaxel level; 35-100 mg/m^2 in a 3 hour bolus every 10-16 days
# Protocol: This area is calculated using the equation: [formula] where λi is the exponent of the i-th exponential term, and Ci is the initial concentration of the i-th component of the curve. Curve fitting with this model yields the parameters Ci, C2, C3 λ1, λ2 and λ3. The half-lives (t1/2 s) are calculated from the equations t1/2 (α)=0.693/λ1, t1/2 (β)=0.693/λ2 and t1/2 (γ)=0.693/λ3. The total area under the curve (AUC0→.infin.)) is calculated using the linear trapezoidal method with extrapolation of the terminal phase to infinity (Clast /λ3), where Clast is the last measured concentration.
# Typically, maintenance therapy is maintained for a minimum of 3-5 cycles.
smiles,measurement,value
CC(=O)O[C@H]1C(=O)[C@@]2(C)[C@H]([C@H](OC(=O)c3ccccc3)[C@]3(O)C[C@H](OC(=O)[C@H](O)[C@@H](NC(=O)c4ccccc4)c4ccccc4)C(C)=C1C3(C)C)[C@]1(OC(C)=O)CO[C@@H]1C[C@@H]2O [paclitaxel],Cmax,100 to 1000 nM
